Results from article PMC11257396.
Results are given in words; binding and its absence hold for the method and conditions named. Binding seen in cells or lysates may run through a third protein. Some entries that bind do so weakly or less than the wild type. Tags and fused reporters may be left off the sequences shown.

The chains behind the UniProt entries cited, without tags or fusion partners.
UniProt A6NHR9: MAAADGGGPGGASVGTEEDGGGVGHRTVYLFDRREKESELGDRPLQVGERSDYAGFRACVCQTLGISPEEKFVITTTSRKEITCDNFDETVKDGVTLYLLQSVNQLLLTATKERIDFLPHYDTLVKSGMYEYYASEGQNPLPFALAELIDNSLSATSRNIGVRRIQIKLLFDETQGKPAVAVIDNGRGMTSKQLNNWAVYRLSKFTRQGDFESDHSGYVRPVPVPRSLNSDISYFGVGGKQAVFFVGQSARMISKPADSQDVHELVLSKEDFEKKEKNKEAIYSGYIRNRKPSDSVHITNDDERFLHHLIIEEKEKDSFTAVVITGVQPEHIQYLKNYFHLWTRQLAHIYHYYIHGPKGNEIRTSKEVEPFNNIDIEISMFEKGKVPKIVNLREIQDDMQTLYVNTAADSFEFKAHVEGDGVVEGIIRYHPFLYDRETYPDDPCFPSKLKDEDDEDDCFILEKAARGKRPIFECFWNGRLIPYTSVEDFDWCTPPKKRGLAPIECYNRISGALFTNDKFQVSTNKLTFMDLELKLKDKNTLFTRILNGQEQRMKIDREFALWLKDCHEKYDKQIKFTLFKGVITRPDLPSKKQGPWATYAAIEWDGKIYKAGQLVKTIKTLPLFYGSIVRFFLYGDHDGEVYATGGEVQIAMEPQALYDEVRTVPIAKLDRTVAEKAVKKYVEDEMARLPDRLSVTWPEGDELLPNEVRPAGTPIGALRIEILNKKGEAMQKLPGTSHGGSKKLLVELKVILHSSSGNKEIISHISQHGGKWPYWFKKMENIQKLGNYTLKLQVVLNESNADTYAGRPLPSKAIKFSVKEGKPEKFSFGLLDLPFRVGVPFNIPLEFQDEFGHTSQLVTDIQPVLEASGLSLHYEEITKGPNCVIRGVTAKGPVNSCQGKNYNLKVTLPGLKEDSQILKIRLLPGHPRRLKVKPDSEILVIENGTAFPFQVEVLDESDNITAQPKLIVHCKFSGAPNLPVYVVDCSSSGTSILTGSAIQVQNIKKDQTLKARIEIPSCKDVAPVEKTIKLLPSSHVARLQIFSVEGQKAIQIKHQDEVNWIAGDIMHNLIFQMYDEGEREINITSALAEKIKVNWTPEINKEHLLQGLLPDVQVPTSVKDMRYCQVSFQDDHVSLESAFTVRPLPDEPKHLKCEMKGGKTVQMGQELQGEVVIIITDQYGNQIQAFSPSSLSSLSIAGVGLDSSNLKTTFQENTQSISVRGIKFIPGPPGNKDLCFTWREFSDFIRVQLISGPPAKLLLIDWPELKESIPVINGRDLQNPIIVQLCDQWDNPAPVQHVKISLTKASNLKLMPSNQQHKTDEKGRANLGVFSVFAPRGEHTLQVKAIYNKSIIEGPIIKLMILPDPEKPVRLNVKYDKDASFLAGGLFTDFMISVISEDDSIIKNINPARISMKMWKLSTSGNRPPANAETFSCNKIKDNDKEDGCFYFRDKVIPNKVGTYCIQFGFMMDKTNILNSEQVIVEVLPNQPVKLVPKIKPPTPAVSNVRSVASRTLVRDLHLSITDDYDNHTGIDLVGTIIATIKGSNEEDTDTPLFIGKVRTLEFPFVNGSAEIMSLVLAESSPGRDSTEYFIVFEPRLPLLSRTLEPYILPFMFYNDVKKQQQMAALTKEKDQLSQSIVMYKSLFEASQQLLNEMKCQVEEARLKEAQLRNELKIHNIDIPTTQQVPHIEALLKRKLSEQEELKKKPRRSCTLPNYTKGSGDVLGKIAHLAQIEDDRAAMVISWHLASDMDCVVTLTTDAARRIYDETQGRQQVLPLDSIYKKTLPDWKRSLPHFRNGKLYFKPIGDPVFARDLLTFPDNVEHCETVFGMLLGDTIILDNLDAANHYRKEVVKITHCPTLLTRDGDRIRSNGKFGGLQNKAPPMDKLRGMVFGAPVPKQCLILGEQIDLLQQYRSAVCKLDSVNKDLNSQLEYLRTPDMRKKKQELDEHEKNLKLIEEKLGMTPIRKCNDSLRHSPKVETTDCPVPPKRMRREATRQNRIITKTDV

Target: T1, FLAG-tagged LRIF1 (ligand-dependent nuclear receptor-interacting factor 1), shRNA-resistant, full-length (human) (UniProt Q5T3J3)
T1 sequence: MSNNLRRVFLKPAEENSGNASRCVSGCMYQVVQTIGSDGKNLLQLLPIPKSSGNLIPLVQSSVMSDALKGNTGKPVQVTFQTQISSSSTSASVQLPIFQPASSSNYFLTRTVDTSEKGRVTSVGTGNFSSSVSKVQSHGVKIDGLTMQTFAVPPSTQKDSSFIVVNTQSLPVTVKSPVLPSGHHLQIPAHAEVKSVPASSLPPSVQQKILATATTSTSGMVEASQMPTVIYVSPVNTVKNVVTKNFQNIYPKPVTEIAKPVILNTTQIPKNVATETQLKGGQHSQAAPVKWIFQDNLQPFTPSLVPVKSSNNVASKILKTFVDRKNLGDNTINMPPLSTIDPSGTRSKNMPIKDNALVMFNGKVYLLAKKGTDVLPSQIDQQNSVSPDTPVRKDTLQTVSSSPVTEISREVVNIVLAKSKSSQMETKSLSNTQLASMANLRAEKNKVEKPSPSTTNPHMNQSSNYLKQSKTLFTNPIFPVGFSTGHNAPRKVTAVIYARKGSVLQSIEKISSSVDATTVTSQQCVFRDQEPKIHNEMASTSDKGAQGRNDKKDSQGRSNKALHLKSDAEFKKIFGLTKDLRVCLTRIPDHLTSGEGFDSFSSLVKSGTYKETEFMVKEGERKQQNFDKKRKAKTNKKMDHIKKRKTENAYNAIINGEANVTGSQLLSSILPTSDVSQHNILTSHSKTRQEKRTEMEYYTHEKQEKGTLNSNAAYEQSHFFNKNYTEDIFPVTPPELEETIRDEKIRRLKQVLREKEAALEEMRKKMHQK
Assay: co-IP; anti-FLAG antibody (or IgG) on NP-40 lysates of HEK293 cells transfected with FLAG-LRIF1, m1 or m2, 48 h after transfection; protein A/G magnetic beads, 4°C; Western blot

SMCHD1 (Structural Maintenance of Chromosomes Hinge Domain 1), endogenous (from UniProt A6NHR9 1-2005)
binding: binds
